Reference: patent US20250368734A1
Results are given in words; binding and its absence hold for the method and conditions named. Some results given as binding are weak or reduced against the parent protein; the word gives no strength.

Biological target: T1, mouse GPRC5D (mouse) (UniProt Q9JIL6)
T1 sequence (looked up): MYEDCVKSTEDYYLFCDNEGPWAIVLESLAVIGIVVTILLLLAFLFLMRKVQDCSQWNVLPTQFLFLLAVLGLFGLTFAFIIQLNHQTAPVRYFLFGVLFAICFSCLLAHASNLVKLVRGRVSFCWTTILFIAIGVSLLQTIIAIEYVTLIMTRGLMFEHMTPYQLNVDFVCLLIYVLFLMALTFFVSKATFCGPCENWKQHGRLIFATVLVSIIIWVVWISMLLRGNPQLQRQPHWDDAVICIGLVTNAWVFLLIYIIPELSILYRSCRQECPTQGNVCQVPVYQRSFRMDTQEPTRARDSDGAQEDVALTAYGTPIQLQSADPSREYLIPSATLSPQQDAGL
Assay: FACS, HEK293T-mGPRC5D cells

B1: ch12G12C2 (antibody, V domains shown)
VH: QIQLVQSGPELKMPGETVKISCKASGYTFTTYGLSWVKQAPGKGLKWMGWINTFSGVPIYADDFKGRFAFSLETSASTAYLQINNLKNEDTATYFCARWGIRQRGDYWGQGATLTVSS
VL: QIVLTQSPAIMSASPGEKVTMTCSASSSVSYLHWYQQKSGTSPKRWIYDTSKLASGVPVRFSGSGSETSYSLTISSMEAEDAATYYCQQWTSNPPTFGGGTKLEIK
  binding: binds

B2: ch20C4E1 (antibody, V domains shown)
VH: EVRLVESGGALVRPGGSLKLSCAASGFTFSDYGMHWVRQAPEKGLEWIAFISSVSFTIYYADTVKGRFTISRDNAKNTLFLQMTSLRSEDTALYYCTRLGPHWYFDVWGTGTTVTVSS
VL: DVVLTQTPLSLPVSLGDQASISCRSSQSLVYSNGNTYLHWFLQKPGQSPQLLIYKVSNRFSGVPDRFSGSGSGTDFTLKISRVEAEDLGVYFCSQSTPVPTFGGGTKLEIK
  binding: binds

B3: ch15D6G2 (antibody, V domains shown)
VH: EVQLVESGGDLVKPGGYLRLSCAASGFTFSSHGMSWVRQTPDKRLEWVATISSGGRNTYYPDSVKGRFTISRDNAKNILYLQMSSLKSEDTAMFYCTRHSGDAMDYWGQGTSVTVSS
VL: DILLTQSPAILSVSPGERVSFSCRASQSIGTNIHWYQQRTNGSPRLLIKYASESISGIPSRFSGSGSGTDFTLSINSVESEDIADYYCQQSKSWPTFGGGTKLEIK
  binding: binds

B4: ch28H9C12 (antibody, V domains shown)
VH: EVQLVESGGGLVKPGGSLKLSCAASGFTFSDYGMHWVRQAPEKGLEWVAYISSGSSTIYYADTVKGRFTISRDNAKNTLFLQMTSLRSEDTAIYYCVRRPWYFDVWGTGTTVTVSS
VL: DVLMTQTPLSLPVSLGDQASISCRSSQSIVHSNGNTYLQWYLQKPGQSPKLLIYKVSNRFSGVPDRFSGSGSGTDFTLKISRLEAEDLGVYYCFQGSHVPFTFGSGTKLEIK
  binding: binds

B5: ch26E2H6 (antibody, V domains shown)
VH: EVQLVESGGDLVKPGGSLKLSCAASGFTFSSYGMSWVRQTPDKRLEWVATISSGGSYTYYPDSVKGRFTISRDNAKNTLYLQMSSLKSEDTAMYYCARHATDYWGQGTTLTVSS
VL: QIVLTQSPAIMSASPGEKVTMTCSASSSVSYMHWYQQKSGTSPKRWIYDTSKLASGVPARFSGSGSGTSYSLTISSMEAEDAATYYCQQWSSNPLTFGAGTKLELK
  binding: binds

B6: ch98A3A8 (antibody, V domains shown)
VH: EVQLQQSGPELVKPGASVKMSCKASGYTFTYYVTHWVRQKPGQGLEWIGYINPYNDGTMFNEKFKGKATLTSDKSSSTAYMEFSSLTSEDSAVFYCARGGVRRYFDVWGAGTTVTVSS
VL: DIQMTQSPSSLSASLGERVSLTCRASQDIGSNLNWLQQKPDGTIKRLIYATSSLDSGVPKRFSGSRSGSDYSLTINSLESEDFVDYYCLQYASFPYTFGGGTKLEIK
  binding: binds

B7: ch96C9E7 (antibody, V domains shown)
VH: EVQLQQSGPELVKPGASVKMSCKASGYTFTYYILHWVKQKPGQGLEWIGYFNPYNDGNKFNERFRGKATLTSDKSSSTAYMELNSLTSEDSAVYFCARGGVRRYFDVWGAGTTVTVSS
VL: DIQMTQSPSSLSASLGERVSLTCRASQDIGSNLNWLQQEPDGTIKRLISATFSLDSGVPKRFSGSRSGSDYSLTISSLESEDFVNYYCLQYASFPYTFGGGTKLEIK
  binding: binds

B8: ch90G6H3 (antibody, V domains shown)
VH: QAYLQQSGAELVRSGASVKMSCKASGYTFTSYIMHWVKQTPGQGLEWIGYIYPGNGGTNYNQKFKDKATLSADTSSSTAYMQINSLTSEDSAVYFCARWGLRQGFAYWGQGTLVSVSA
VL: DIVMTQSQKFMSTSVGDRVSVTCKASQNVGGNVAWYQQKPGQSPKALIYSTSYRNSGVPDRFTGSGSGTDFTLTISNVQSEDLAEYFCQQYNSYPFTFGSGTKLEIR
  binding: binds

B9: ch89F11E3 (antibody, V domains shown)
VH: QVQLQQSGAELARPGASVKMSCKASGYTFTSSTIHWVKQRPGQGLAWIGYIVPSTGYTNYNQKFKDKATLTADKSSSTAYMQLTSLTSEDSAVYYCARSDGYPFGYSMAYWGQGTSVTVSS
VL: DIQMNQSPSSLSASLGDTITITCHASQNINVWLSWYHQKPGNIPKLLIYKASNLHTGVPSRFSGSGSGTGFTLTISRLQPEDIATYYCQQGQSYPFTFGSGTKLEIK
  binding: binds

B10: ch87A3G8 (antibody, V domains shown)
VH: QVQLKESGPGLVAPSQSLSITCTVSGFSLSSYSVYWVRQPPGKGLEWLGVIWAGGSTNYNSALMSRLSINKDKSKSQVFLKMNSLQTDDSAIYYCAMRWLPRGLDFWGQGTSVTVSS
VL: DIVMTQSHKFMSTSVGDRVSITCKASQDVGTAVAWYQQKPGQSPKLLIYWASTRHTGVPDRFTGSGSGTDFTLTISNVQSEDLADYFCQQYSTYYTFGGGTKLEIK
  binding: binds

B11: ch110B4H5 (antibody, V domains shown)
VH: EVQLQQSGPELVKPGASVKMSCKASGYTFTFYIMHWVKQKPGQGPEWIGYINPYNDGTKYNAKFKGKATLSSDRSSSTAYMELSSLTSEDSAVYYCARGGVRRYFDVWGAGTPVTVSS
VL: DIQMTQSPSSLSASLGERVSLTCRSSQDIGSNLNWLQQEPDGTIKRLIYATFSLDSGVPKRFSGSRSGSHYSLTISSLESEDFVVYYCLQYGSFPYTFGGGTKLEIK
  binding: binds

B12: ch108C4C12 (antibody, V domains shown)
VH: EVQLQQSGPELVKPGASVKMSCKASGYTFTSYVIHWVKQKTGQGLEWIGYFNPYNDGTKYNEEFKGKATLTSDKSSNTAYMELNSLTSDDSAVYFCARGGVRRYFDVWGAGTTVTVSS
VL: DIQMTQSPSSLSASLGERVSLTCRASQDIGSNLNWLQQEPDGTIKRLIYATFGLDSGVPKRFSGSRSGSDYSLTISSLESEDFVDYYCQQYASFPYTFGGGTKLEIK
  binding: binds

B13: ch101B3G3 (antibody, V domains shown)
VH: EVQLQQSGPELVKPGASMKISCKASGYSFTGYTMNWVKQSHGKNLEWIGLINPYNGGTRYNQKFKDKATLTVDKSSSTAYMELLSLTSEDSAVYYCARWLLRYAMDYWGQGTSVTVSS
VL: DIVMTQSQKFMSTSVGDRVSITCKASQNVGNAVAWYQQKPGHSPKLLISSASNRKNGVPDRFTGSGSGTDFTLTVSNMQSEDLADYFCQQYSDSSWTFGGGTKLEIK
  binding: binds
